# Experimental data published in publication PMC9655635.
# The chains behind the UniProt entries cited, without tags or fusion partners.
# UniProt Q9UJQ4: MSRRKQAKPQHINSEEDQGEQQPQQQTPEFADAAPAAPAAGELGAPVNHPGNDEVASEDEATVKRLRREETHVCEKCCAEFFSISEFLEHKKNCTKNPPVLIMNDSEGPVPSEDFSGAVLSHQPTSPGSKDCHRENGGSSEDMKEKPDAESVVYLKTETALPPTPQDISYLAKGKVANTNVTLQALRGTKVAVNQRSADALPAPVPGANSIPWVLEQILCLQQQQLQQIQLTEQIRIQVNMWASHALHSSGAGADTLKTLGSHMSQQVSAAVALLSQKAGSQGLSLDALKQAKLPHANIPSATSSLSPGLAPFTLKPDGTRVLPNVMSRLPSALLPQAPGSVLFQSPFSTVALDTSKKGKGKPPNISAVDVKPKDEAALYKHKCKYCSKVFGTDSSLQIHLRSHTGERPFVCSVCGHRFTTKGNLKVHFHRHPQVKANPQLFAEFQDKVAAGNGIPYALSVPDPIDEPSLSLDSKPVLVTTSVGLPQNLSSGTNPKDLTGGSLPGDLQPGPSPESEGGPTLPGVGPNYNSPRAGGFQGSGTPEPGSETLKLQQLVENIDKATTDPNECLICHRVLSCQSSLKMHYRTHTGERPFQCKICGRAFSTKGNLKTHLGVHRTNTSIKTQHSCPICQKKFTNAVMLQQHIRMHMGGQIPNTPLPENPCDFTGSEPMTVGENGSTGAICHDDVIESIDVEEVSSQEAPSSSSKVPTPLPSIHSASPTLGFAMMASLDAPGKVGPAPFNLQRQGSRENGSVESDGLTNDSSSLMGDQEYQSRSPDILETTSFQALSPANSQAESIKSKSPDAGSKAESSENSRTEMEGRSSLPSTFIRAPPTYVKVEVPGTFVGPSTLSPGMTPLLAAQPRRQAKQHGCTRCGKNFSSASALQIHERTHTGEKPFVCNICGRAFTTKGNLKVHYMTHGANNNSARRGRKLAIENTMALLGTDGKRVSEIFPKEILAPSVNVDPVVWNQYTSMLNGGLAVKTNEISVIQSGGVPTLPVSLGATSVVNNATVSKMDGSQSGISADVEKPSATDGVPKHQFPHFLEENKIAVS
# UniProt Q09028: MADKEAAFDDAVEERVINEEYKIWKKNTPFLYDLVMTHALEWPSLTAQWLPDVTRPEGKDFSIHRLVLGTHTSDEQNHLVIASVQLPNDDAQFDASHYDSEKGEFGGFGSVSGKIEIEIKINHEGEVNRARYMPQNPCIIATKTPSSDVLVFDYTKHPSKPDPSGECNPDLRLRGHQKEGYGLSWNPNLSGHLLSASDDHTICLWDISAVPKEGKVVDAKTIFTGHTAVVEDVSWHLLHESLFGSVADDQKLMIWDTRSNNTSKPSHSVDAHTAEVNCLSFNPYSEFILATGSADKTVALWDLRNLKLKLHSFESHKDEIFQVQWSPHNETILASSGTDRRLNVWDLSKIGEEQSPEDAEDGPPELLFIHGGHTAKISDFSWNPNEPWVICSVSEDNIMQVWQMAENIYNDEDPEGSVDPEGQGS
# These are yes or no findings as the source states them, for the method shown. Binding seen in cells or lysates may run through a third protein. Some entries that bind do so weakly or less than the wild type.
# Molecular target: SALL4 (human) (UniProt Q9UJQ4)
# Test: co-IP; SALL4 antibody incubated with 500 ug of cell lysate (RIPA lysis buffer) for 2 h at 4 °C, then Protein A/G PLUS-Agarose beads overnight at 4 °C; beads washed three times with lysis buffer; blot developed against RBBp4; control IgG as negative control
substance,measurement,value
retinoblastoma binding protein 4 (RBBp4) (from UniProt Q09028 1-425),binding,binds
